Here are results for 40 targets from the supplement of paper PMC10849652.

By UniProt entry, the sequences of proteins in these tests, tags left out. Where a name states a change or a piece, a line headed by the entry shows the natural chain unless it says otherwise.
UniProt Q8TBC4: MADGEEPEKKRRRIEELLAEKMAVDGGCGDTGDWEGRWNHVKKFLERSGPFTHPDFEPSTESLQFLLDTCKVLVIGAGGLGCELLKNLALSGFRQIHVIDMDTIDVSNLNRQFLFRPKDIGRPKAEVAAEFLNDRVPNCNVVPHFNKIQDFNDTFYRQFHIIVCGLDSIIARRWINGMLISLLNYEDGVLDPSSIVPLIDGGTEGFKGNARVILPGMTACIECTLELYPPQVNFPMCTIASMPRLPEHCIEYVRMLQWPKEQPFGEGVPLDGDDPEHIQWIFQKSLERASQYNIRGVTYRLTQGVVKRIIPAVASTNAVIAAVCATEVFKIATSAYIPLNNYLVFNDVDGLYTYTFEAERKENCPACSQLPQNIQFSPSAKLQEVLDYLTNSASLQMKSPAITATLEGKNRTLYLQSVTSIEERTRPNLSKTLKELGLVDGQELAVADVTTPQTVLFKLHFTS
UniProt O14530: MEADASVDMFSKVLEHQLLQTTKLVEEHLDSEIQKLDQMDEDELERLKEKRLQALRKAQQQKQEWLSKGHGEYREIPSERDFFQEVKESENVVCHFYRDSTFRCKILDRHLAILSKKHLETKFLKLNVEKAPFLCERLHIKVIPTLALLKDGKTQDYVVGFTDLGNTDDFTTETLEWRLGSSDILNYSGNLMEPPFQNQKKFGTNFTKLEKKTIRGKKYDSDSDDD
UniProt P68036, whole entry, looked up: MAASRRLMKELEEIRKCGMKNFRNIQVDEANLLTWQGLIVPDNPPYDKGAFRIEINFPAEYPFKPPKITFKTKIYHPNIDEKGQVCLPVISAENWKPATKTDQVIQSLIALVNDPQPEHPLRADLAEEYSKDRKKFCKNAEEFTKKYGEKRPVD
UniProt Q9UNY4: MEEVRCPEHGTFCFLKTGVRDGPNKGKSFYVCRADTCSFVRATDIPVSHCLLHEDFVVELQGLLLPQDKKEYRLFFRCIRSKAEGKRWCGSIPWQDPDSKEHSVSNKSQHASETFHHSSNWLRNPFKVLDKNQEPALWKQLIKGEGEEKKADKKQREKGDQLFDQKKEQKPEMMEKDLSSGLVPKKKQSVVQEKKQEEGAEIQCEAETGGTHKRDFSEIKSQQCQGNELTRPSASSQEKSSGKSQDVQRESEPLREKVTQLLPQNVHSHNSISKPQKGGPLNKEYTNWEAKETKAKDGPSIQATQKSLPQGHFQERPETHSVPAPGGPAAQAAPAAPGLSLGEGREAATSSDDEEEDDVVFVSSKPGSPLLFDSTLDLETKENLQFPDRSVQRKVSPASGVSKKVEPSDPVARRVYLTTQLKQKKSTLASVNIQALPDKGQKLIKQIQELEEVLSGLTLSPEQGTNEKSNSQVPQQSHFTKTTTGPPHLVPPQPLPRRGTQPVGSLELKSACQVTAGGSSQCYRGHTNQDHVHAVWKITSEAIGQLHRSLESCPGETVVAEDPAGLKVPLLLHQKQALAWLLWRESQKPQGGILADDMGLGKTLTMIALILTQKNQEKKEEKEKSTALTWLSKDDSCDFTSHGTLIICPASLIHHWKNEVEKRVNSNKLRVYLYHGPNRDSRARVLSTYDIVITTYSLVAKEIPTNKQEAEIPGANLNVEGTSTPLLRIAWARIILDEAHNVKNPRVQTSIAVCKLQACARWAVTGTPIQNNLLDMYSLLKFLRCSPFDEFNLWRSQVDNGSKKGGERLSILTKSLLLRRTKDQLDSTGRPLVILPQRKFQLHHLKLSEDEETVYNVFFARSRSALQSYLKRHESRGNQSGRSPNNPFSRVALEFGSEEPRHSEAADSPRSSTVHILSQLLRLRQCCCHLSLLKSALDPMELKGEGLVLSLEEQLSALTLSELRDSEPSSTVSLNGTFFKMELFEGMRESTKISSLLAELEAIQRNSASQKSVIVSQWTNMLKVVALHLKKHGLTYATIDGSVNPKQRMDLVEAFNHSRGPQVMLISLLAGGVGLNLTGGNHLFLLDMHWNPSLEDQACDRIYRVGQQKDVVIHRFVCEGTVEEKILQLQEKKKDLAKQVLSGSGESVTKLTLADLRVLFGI
UniProt Q8N5M4: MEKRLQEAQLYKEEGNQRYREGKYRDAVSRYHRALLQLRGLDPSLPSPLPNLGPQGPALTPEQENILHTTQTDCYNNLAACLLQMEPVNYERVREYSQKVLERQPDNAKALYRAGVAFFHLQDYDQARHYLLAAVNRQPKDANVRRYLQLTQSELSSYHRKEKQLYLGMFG
UniProt Q969E8: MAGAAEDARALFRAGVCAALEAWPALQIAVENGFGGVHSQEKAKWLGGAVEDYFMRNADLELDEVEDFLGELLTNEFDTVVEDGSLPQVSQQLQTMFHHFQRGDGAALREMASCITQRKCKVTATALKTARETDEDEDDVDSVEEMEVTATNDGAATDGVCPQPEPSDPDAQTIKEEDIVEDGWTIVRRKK
UniProt Q969T4: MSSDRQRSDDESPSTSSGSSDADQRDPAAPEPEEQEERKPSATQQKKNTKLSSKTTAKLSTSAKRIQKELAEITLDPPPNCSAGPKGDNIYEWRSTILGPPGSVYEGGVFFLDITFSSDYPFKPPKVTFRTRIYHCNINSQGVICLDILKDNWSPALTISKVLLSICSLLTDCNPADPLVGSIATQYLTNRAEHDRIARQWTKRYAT
UniProt Q5T6F2: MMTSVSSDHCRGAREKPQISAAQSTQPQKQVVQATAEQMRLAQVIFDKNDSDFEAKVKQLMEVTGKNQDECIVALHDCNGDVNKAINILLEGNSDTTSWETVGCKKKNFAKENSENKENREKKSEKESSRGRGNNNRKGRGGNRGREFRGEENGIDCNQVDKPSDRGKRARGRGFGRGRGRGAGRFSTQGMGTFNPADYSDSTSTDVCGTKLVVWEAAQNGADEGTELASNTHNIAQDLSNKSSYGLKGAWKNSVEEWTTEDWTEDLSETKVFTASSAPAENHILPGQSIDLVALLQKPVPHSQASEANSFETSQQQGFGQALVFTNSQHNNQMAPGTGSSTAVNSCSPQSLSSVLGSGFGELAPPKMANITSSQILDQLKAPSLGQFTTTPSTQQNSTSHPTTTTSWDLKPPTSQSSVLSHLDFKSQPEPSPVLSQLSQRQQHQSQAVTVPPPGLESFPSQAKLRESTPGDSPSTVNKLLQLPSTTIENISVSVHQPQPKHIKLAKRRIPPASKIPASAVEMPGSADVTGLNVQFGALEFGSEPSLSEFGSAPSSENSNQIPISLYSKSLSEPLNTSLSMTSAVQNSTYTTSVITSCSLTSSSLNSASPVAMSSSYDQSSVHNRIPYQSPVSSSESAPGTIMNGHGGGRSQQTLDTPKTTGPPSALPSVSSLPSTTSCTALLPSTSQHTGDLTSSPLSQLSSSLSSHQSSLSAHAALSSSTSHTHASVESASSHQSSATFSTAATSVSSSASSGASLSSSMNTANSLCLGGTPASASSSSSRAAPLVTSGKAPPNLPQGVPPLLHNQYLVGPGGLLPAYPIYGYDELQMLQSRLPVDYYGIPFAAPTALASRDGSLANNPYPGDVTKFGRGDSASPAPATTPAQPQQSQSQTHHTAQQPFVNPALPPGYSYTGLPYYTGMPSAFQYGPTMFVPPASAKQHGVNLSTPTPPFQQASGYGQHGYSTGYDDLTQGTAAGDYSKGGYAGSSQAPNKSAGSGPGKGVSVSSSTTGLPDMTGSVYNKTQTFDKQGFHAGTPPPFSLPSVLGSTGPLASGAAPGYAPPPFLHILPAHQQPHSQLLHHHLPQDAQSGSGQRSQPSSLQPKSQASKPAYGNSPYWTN
UniProt P61081: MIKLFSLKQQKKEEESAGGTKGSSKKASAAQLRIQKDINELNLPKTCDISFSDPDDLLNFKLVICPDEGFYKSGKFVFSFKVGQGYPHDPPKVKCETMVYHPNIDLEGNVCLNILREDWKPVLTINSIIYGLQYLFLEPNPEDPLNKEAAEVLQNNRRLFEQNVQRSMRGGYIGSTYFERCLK
UniProt O43156, whole entry, looked up: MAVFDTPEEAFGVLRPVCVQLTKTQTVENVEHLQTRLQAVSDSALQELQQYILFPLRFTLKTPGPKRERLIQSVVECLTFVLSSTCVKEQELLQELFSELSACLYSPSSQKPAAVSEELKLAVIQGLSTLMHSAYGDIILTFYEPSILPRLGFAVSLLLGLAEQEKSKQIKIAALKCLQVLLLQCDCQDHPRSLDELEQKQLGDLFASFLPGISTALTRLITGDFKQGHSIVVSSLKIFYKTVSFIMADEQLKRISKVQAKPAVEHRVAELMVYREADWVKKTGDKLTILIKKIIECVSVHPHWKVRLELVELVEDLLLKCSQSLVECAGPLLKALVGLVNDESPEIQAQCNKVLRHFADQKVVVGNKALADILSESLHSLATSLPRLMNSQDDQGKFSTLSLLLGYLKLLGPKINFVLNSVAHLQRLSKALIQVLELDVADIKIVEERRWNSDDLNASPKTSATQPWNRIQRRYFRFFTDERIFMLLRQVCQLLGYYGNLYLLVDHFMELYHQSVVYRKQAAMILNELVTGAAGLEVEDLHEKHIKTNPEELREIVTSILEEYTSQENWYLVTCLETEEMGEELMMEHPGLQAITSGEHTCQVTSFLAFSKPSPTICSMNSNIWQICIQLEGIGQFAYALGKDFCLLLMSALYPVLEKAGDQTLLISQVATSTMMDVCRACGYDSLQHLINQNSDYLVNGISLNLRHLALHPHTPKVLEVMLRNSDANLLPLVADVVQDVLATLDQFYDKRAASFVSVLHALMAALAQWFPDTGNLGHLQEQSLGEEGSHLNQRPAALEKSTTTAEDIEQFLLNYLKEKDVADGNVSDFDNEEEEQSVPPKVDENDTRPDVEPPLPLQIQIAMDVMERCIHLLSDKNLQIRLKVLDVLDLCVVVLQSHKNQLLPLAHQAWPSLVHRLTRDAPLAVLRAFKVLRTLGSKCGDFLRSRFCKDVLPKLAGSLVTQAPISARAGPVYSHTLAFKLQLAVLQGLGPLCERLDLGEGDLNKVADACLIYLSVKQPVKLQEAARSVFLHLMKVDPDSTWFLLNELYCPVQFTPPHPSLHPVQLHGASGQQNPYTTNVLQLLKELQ
UniProt P62253: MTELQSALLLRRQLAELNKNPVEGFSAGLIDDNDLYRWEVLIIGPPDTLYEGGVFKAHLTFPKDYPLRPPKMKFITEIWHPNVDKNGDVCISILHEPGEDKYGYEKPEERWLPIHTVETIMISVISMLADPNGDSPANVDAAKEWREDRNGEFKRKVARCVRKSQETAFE
UniProt O15042: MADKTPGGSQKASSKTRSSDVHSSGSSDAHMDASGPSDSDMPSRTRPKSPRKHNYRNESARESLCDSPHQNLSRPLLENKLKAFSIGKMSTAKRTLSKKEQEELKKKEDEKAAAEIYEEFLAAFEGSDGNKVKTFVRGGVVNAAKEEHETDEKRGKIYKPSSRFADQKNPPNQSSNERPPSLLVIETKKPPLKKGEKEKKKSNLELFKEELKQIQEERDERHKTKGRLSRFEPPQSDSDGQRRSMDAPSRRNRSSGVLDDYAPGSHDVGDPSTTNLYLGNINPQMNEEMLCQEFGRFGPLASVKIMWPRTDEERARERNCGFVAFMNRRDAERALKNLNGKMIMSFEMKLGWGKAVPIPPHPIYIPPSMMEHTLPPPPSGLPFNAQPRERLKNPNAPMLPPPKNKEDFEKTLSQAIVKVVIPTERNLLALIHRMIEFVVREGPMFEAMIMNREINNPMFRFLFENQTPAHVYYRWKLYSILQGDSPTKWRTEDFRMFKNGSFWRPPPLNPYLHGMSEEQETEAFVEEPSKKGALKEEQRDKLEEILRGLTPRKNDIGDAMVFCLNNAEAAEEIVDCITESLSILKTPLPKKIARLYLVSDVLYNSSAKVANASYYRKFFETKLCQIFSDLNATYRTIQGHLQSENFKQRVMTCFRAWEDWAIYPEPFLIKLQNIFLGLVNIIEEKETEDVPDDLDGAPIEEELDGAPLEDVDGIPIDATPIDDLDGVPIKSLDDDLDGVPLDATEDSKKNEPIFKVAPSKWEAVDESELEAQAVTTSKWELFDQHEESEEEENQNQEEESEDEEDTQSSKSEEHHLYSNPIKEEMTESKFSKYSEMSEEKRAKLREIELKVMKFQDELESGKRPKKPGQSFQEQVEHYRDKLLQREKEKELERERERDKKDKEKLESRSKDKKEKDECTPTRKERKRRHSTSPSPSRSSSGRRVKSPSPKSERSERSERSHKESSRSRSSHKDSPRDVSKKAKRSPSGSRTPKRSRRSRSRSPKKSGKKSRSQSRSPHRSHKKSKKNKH
UniProt Q01081: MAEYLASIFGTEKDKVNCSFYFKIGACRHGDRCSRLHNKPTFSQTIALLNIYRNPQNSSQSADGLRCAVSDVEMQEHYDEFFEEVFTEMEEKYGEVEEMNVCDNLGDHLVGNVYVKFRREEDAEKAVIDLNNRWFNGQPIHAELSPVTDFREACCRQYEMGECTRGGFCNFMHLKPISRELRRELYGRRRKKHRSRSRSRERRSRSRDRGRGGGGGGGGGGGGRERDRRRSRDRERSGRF
UniProt Q99757: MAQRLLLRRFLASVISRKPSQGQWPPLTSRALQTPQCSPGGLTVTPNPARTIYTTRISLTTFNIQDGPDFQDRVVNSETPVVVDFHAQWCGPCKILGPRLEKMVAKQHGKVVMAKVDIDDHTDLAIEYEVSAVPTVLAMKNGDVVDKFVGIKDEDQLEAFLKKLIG

The list shows a part of the results.

Compound in the assay: O=C1NC(=O)C(c2cnc3ccccn23)=C1c1cn2c3c(cc(F)cc13)CN(C(=O)N1CCCCC1)CC2
Briefly: log2 fold change, soluble protein after heating vs DMSO (PISA); higher = thermal stabilisation; K562 cells, 10 uM, 30 min; active = over 0.2 and 3.5 SD of the protein, either way, in both replicates (recomputed). In short, it runs like this:
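K562 cells at 2×10^6 cells/mL were given 10 μM compound for 30 min. Aliquots then went through 3 min of heating across 48°C-58°C, were pooled, and were extracted in PBS with 0.5% NP-40 at 4°C, and the supernatant after 21,000xg for 90 min was quantified by TMTpro 16plex LC-MS/MS with channel sums equalised. Thermal stability relative to control samples, from duplicates, is given as log2 fold change.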
As to UBAP1 isoform 4 (UniProt Q9NZ09), the log2 fold change is inactive: -0.032. Turning to U2AF2 (UniProt P26368), the log2 fold change is inactive: 0.113. Take TSPAN14 (UniProt Q8NG11): the log2 fold change is inactive: 0.007.

Take UBA3 (UniProt Q8TBC4): the log2 fold change was inactive: -0.093.

Regarding TXNL4A (UniProt P83876), the log2 fold change is inactive: -0.054. Regarding TXNDC9 (UniProt O14530), the log2 fold change was inactive: -0.022. Under UBE2L3 isoform 3 (UniProt P68036) stands inactive: -0.038; under UBAC1 (UniProt Q9BSL1), inactive: -0.006; under TTF2 (UniProt Q9UNY4), inactive: -0.084.

Take UBE3A (UniProt Q05086): the log2 fold change is inactive: -0.028.

For the target TTC9C (UniProt Q8N5M4), the log2 fold change was inactive: -0.037. On to TTC4 (UniProt O95801), for which the log2 fold change was inactive: -0.051.

As for UBA1 (UniProt P22314), the log2 fold change was inactive: -0.013. Take TSFM (UniProt P43897): the log2 fold change is inactive: -0.043. In the case of TSR2 (UniProt Q969E8), the log2 fold change was inactive: -0.115. For TUBE1 (UniProt Q9UJT0), the log2 fold change is inactive: 0.057. For UBE2S (UniProt Q16763), the log2 fold change is inactive: -0.106.

As for TXNRD2 (UniProt Q9NNW7), the log2 fold change was inactive: 0.04. Under UBE2E3 (UniProt Q969T4) stands inactive: 0.023. Regarding UBAP2 (UniProt Q5T6F2), the log2 fold change is inactive: -0.029. Turning to UBE2M (UniProt P61081), the log2 fold change is inactive: -0.07. Regarding TTC17 (UniProt Q96AE7), the log2 fold change is inactive: 0.066.

For the target TTI1 (UniProt O43156), the log2 fold change was inactive: 0.057. Under UAP1 (UniProt Q16222) stands inactive: -0.024; under TSPO (UniProt P30536), inactive: -0.008. TTN isoform 12 (UniProt Q8WZ42): the log2 fold change is inactive: -0.146. TTL (UniProt Q8NG68): the log2 fold change is inactive: 0.021. As to TXNDC15 (UniProt Q96J42), the log2 fold change is inactive: -0.005.

Take UBE2T (UniProt Q9NPD8): the log2 fold change was inactive: -0.202. Consider TWF2 (UniProt Q6IBS0), for which the log2 fold change was inactive: -0.015. Under TUFM (UniProt P49411) stands inactive: -0.143; under UBA52 (UniProt P62987), inactive: 0.246. Under UBE2G1 (UniProt P62253) stands inactive: 0.001; under UBE2F isoform 2 (UniProt Q969M7), inactive: 0.003; under U2SURP (UniProt O15042), inactive: -0.032. For the target TXNIP (UniProt Q9H3M7), the log2 fold change was inactive: -0.079.

Regarding UBE2K (UniProt P61086), the log2 fold change is inactive: 0.017. U2AF1 isoform 2 (UniProt Q01081): the log2 fold change is inactive: -0.039. Under TUBB3 (UniProt Q13509) stands inactive: -0.017. As to TXN2 (UniProt Q99757), the log2 fold change is inactive: -0.09.
